Measurements taken from article PMC7925596, “Exploring targeting peptide-shell interactions in encapsulin nanocompartments” (Scientific Reports, 2021).
Results are given in words; binding and its absence hold for the method and conditions named. Some binding calls cover weakened binding; strength is not graded here. Tags and fused reporters may be left off the sequences shown. Each block holds one binder with its values, some of them ahead of it.

Legend:
[1] = molecular target: Myxococcus xanthus encapsulin (T3 encapsulin shell) (M. xanthus) (UniProt Q1D6H4); test: bulk fluorescence of purified encapsulin particles (loading percentage); particles loaded in E. coli and purified; 15 ug/mL in 20 mM Tris, 100 mM NaCl, pH 8 with 1 mg/mL BSA; plate reader Ex 500 nm, Em 530 nm, 20 C; loading = percentage of occupied TP binding sites (T1: 60, T3: 180), mNeonGreen standard curve; triplicates
[2] = molecular target: Thermotoga maritima encapsulin (T1 encapsulin shell) (T. maritima) (UniProt Q9WZP2); test: single particle fluorescence imaging; purified particles loaded in E. coli, diluted 200x (T1) or 1000x (T3), immobilised in glass flow chambers; wide field microscopy, spot intensities by Gaussian fit
[3] = molecular target: Thermotoga maritima encapsulin (T1 encapsulin shell) (T. maritima) (UniProt Q9WZP2); test: bulk fluorescence of purified encapsulin particles (loading percentage); particles loaded in E. coli and purified; 15 ug/mL in 20 mM Tris, 100 mM NaCl, pH 8 with 1 mg/mL BSA; plate reader Ex 500 nm, Em 530 nm, 20 C; loading = percentage of occupied TP binding sites (T1: 60, T3: 180), mNeonGreen standard curve; triplicates
[4] = molecular target: Myxococcus xanthus encapsulin (T3 encapsulin shell) (M. xanthus) (UniProt Q1D6H4); test: single particle fluorescence imaging; purified particles loaded in E. coli, diluted 200x (T1) or 1000x (T3), immobilised in glass flow chambers; wide field microscopy, spot intensities by Gaussian fit

- binding [1]: binds
B1: mNeonGreen fused to the T3 targeting peptide mutant S6A (peptide)
chain: PLTVGALRRGG

- binding [1]: binds
B3: mNeonGreen fused to the T3 targeting peptide mutant R9A (peptide)
chain: PLTVGSLRAGG

- binding [1]: binds
B5: mNeonGreen fused to the T3 targeting peptide mutant G10W (peptide)
chain: PLTVGSLRRWG

Second part, the binder before the results:

B2: mNeonGreen C-terminally fused to the T1 consensus targeting peptide (peptide)
chain: DGSLGIGSLKG
notes: consensus targeting peptide found in T1 encapsulin systems; The targeting peptide is at the C-terminus of mNeonGreen; also called mNeonGreenTP (T1 consensus TP); T1 consensus TP; source: E. coli One shot BL21 (DE3) Star, pCDF-Duet1, IPTG induced before encapsulin; co-purified with encapsulin particles; not shown: mNeonGreen, N-terminal, kept
- binding [2]: binds

B4: mNeonGreen C-terminally fused to the GGS control targeting peptide (peptide)
chain: GGSGGSGGSGG
- binding [1]: no binding
- binding [3]: no binding

B6: mNeonGreen C-terminally fused to the native T3 targeting peptide (peptide)
chain: PLTVGSLRRGG
notes: native 11-residue targeting peptide of the M. xanthus (T3) encapsulin system; The targeting peptide is at the C-terminus of mNeonGreen; also called mNeonGreenTP (native T3 TP); native T3 TP; source: E. coli One shot BL21 (DE3) Star, pCDF-Duet1, IPTG induced before encapsulin; co-purified with encapsulin particles; not shown: mNeonGreen, N-terminal, kept
- binding [4]: binds

B7: mNeonGreen C-terminally fused to the native T1 targeting peptide (peptide)
chain: NTGGDLGIRK
notes: native targeting peptide of the T. maritima (T1) encapsulin system, from the C-terminus of the native cargo protein; The targeting peptide is at the C-terminus of mNeonGreen; also called mNeonGreenTP (native T1 TP); native T1 TP; source: E. coli One shot BL21 (DE3) Star, pCDF-Duet1, IPTG induced before encapsulin; co-purified with encapsulin particles; not shown: mNeonGreen, N-terminal, kept
- binding [2]: binds
